In paper PMC7877769:
These are yes or no findings as the source states them, for the method shown. In cells and extracts the contact can be indirect. Some entries that bind do so weakly or less than the wild type. For part of these data: Sequences can lack the tags named with a protein.

By UniProt entry, the sequences of proteins in these tests, tags left out.
UniProt A0A125YW19: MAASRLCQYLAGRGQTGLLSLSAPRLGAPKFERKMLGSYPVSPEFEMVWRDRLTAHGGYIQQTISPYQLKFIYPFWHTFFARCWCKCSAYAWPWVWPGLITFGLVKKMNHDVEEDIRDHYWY
UniProt A0A125YN38: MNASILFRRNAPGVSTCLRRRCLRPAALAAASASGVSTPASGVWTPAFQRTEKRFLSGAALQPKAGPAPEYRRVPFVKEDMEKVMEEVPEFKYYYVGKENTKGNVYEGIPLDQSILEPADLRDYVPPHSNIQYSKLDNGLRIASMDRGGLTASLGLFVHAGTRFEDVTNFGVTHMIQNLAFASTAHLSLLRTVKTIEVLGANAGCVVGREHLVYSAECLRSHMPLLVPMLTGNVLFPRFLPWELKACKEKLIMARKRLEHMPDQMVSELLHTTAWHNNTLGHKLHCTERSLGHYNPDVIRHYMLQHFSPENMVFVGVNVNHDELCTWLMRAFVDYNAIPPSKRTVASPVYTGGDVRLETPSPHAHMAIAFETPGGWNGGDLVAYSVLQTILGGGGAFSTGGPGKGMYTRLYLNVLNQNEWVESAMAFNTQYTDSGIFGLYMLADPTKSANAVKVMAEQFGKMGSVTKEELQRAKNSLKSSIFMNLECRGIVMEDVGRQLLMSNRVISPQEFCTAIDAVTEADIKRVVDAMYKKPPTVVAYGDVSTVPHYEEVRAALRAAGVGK
UniProt A0A125YZN9: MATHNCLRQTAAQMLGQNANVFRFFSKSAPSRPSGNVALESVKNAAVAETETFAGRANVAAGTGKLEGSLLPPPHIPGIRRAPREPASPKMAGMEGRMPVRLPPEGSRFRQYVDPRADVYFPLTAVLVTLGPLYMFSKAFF

T1: TgQCR9-FLAG (Toxoplasma gondii) (UniProt S7UVH4)
T1 sequence: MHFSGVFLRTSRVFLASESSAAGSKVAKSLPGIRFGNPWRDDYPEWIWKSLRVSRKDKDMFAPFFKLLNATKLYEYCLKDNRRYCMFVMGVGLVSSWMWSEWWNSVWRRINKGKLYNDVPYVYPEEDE

T2: TgQCR11-FLAG (Toxoplasma gondii) (UniProt S7UR33)
T2 sequence: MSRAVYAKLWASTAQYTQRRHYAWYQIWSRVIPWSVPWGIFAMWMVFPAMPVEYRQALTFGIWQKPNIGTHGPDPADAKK

B1: TgQCR11-FLAG (protein, UniProt S7UR33 1-80)
chain: T2 sequence
B2: TgQCR9-FLAG (protein, UniProt S7UVH4 1-128)
chain: T1 sequence
B3: TgCytC1-HA (protein, UniProt S7W9J5 1-398)
chain: MGGGGGGALNKLFPGYKDKIWMKVPVQWRQQMIQHWNKSYEKQVYSESVALNRTFQARNQLVLDRLKPSGAYRLPAVDYKRQLSRGTLVEGADFYLPTAQEQQRLARHFEPYSEQEQEERRKFRFQSISVYLAVALGASFVHDYFYQRRPVAWCLEKEPPHPPSYPFWFKSLFHSHDIPSVRRGYEVYRKVCATCHSMEQLHFRHLVGEVLPEKRVKQIAAEYDVTDGPNDQGEMYTRPGILGDAFPSPYPNEEAARYANGGAYPPDLSLITAARHFGPDYLMALLGGYRDPPEGVELRPGLYWNVWFPGNAIAMPPPLMDEMIDYEDGTPCNISQMSKDVVNFLTWATEPTADERKLYGLKCVSAIAIGTVLMTLWWRFYWAMYATRRIDFGKLKYL

How the values were obtained:
Experiment in all cases: co-IP; parasite samples solubilized in 1% (v/v) Triton X-100; anti-HA affinity matrix or anti-FLAG M2 affinity gel; Total, Unbound and Bound fractions on SDS-PAGE, western blots with anti-HA, anti-FLAG and anti-TgTom40
[1] = molecular target: TgMPPα-HA (Toxoplasma gondii)
[2] = molecular target: TgQCR12-FLAG (Toxoplasma gondii)
[3] = molecular target: TgQCR8-FLAG (Toxoplasma gondii)
[4] = molecular target: T1, TgQCR9-FLAG (Toxoplasma gondii)
[5] = molecular target: T2, TgQCR11-FLAG (Toxoplasma gondii)

| Molecule | binding [1] | binding [5] | other results |
| --- | --- | --- | --- |
| TgQCR8-FLAG (from UniProt A0A125YW19 1-122) | binds |  |  |
| TgMPPα-HA (from UniProt A0A125YN38 1-563) |  | binds | binding [2]: binds; binding [3]: binds; binding [4]: binds |
| TgQCR12-FLAG (from UniProt A0A125YZN9 1-141) | binds |  |  |
| B1 | binds |  |  |
| B2 | binds |  |  |
| B3 |  | binds |  |
